# Where a name gives a salt, the structure may show the parent alone. The list shows a part of the results. Baselines shift from plate to plate; read single values as rough.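 The cells are HEK293 lines stably expressing B-domain-deleted factor VIII fused to Gaussia luciferase, either wild type or a misfolding-prone missense mutant. Each score is mean luminescence from triplicate wells minus the DMSO mean, divided by the DMSO standard deviation; a score of 2 or more counts as a hit, and low scores may reflect lower secretion or poorer cell viability.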
# Experiments:
# HEK293 WT BDD-FVIII-Gluc = assay: secreted FVIII-Gluc luciferase Z-score vs DMSO control; higher = more FVIII-Gluc secretion; settings: 5 µM; 24 h
# [1] = system: HEK293 p.N1941S BDD-FVIII-Gluc; assay: as above; settings: 5 µM; 24 h
Compound,secreted FVIII-Gluc luciferase Z-score (HEK293 WT BDD-FVIII-Gluc),secreted FVIII-Gluc luciferase Z-score [1]
NCCS [Cysteamine HCl],inactive: 0.181,inactive: 0.958
OC1(c2ccc(Cl)c(C(F)(F)F)c2)CCN(CCCC(c2ccc(F)cc2)c2ccc(F)cc2)CC1 [Penfluridol],inactive: -0.0748,inactive: -1.71
N[C@@H]1CN(c2c(F)cc3c(=O)c(C(=O)O)cn([C@@H]4C[C@@H]4F)c3c2Cl)CC12CC2 [Sitafloxacin Hydrate],inactive: 0.627,inactive: 0.521
COCCCC/C(=N\OCCN)c1ccc(C(F)(F)F)cc1 [Fluvoxamine maleate],inactive: -4.25,inactive: -0.00524
O=C(NCCN1CCOCC1)c1ccc(Cl)cc1 [Moclobemide],inactive: 0.301,inactive: -1.39
CCOC(=O)[C@H](CCc1ccccc1)N[C@H]1CS[C@H](c2cccs2)CN(CC(=O)O)C1=O [Temocapril HCl],inactive: -0.128,inactive: 0.152
COC1=C(OC)C(=O)C(CCCCCCCCCCO)=C(C)C1=O [Idebenone],inactive: -2.55,inactive: -0.333
Clc1ccc(C(Cn2ccnc2)OCc2csc3c(Cl)cccc23)c(Cl)c1 (stereo not drawn) [Sertaconazole nitrate],inactive: -1.94,inactive: -2.59
O=C(N/N=C/c1ccc([N+](=O)[O-])o1)c1ccc(O)cc1 [Nifuroxazide],inactive: 0.575,inactive: -0.556

# Reference: the supplement of paper PMC12024529
